These are yes or no findings as the source states them, for the method shown. For some of these results: A result given as binding can be weak or reduced; the word gives no strength.
Experiments:
Test in all cases: two-hybrid; yeast; BET-1 full length or fragments as pLexA-NLS baits, SMO-1 or UBC-9 as pACT preys; six serial 1:5 dilutions spotted on CSM-Leu-Trp and CSM-Leu-Trp-His, 30°C, 72 hours
[1] = target: BET-1 fragment containing the extra terminal domain (C. elegans)
[2] = target: BET-1 peptide covering the second bromodomain (C. elegans)
[3] = target: BET-1 second bromodomain fragment, lysine 252 mutated into arginine (C. elegans)
[4] = target: BET-1 second bromodomain fragment, lysine 253 mutated into arginine (C. elegans)
[5] = target: BET-1 second bromodomain fragment, lysine 264 mutated into arginine (C. elegans)
[6] = target: BET-1 second bromodomain fragment, lysine 276 mutated into arginine (C. elegans)
[7] = target: BET-1 second bromodomain fragment, lysine 277 mutated into arginine (C. elegans)
[8] = target: BET-1 second bromodomain fragment, lysine 304 mutated into arginine (C. elegans)
[9] = target: BET-1 second bromodomain fragment, lysine 313 mutated into arginine (C. elegans)
[10] = target: BET-1 second bromodomain fragment, lysine 315 mutated into arginine (C. elegans)

B1: UBC-9 (enzyme, UniProt Q95017 1-166)
chain: MSGIAAGRLAEERKHWRKDHPFGFIAKPVKNADGTLNLFNWECAIPGRKDTIWEGGLYRIRMLFKDDFPSTPPKCKFEPPLFHPNVYPSGTVCLSLLDENKDWKPSISIKQLLIGIQDLLNHPNIEDPAQAEAYQIYCQNRAEYEKRVKKEAVKYAAELVQKQMLE
binding [1]: no binding | binding [2]: binds | binding [3]: no binding | binding [4]: binds | binding [5]: binds | binding [6]: binds | binding [7]: binds | binding [8]: binds | binding [9]: binds | binding [10]: binds
